Construct, isoform or probe ends are uncertain for at least one entry. The comparison behind a weaker result is the experiment's own reference, which may not be listed here. Protein sequences can lack the tags named with them.
Molecular target: T1, DDX42 (Homo sapiens) (UniProt Q86XP3)
T1 sequence (looked up, limits assumed): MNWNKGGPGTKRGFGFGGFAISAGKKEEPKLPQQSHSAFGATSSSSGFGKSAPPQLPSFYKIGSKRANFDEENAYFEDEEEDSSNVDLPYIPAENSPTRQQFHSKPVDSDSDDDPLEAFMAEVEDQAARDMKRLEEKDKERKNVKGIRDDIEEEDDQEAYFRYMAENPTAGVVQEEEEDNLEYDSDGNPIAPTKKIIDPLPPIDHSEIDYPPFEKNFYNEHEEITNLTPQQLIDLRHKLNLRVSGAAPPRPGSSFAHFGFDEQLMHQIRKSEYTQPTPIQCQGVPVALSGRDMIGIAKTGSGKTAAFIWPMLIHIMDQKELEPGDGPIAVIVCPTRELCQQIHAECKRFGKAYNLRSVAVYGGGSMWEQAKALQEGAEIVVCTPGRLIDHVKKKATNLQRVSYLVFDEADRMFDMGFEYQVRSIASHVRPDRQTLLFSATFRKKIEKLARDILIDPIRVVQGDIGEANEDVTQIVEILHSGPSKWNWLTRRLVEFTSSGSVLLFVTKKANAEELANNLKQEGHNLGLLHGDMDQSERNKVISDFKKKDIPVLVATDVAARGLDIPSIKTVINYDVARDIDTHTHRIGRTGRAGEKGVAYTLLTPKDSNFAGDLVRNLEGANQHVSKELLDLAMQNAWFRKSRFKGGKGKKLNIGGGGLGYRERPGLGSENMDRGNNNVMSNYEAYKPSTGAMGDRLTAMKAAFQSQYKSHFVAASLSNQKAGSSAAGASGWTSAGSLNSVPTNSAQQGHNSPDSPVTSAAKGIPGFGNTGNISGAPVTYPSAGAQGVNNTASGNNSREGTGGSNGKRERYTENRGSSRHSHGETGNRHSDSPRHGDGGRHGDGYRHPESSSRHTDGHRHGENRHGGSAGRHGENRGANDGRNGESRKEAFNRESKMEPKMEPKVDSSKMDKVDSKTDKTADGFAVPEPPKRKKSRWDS
Experiment: ELISA
Conditions: little binding; ELISA: 50 mM K2HPO4 pH 7.4, 100 mM KCl (or 100 mM LiCl), 3% BSA block, 0.1% Tween-20 washes; blocking at room temperature, DDX42 1 h; 50 nM biotin-oligo coating; commercial protein; protein details: N-terminal GST; label: 5' biotin; single-stranded DNA

“TGAGAGTGAGTAGAGTGAGTAA [Myc mut (dG4 mut)]”: binds more weakly.

Reference: PMC6615864, “Genetic interactions of G-quadruplexes in humans”
